The source of these data is US20060057198A1, “Drug delivery from embolic agents” (BIOCOMPATIBLES UK LIMITED, priority 2003, published 2006).

The conditions of the series: over 168 hours, 30 mg/ml in ethanol, low or high AMPS.

On to `COc1ccc2cc([C@H](C)C(=O)O)ccc2c1` [Naproxen], for which the uptake was 35-40 mg naproxen/ml of spheres.
